These are yes or no findings as the source states them, for the method shown. Binding seen in cells or lysates may run through a third protein. A yes stands for co-enrichment or nearness to the bait. Other partners may have been found. Sequences can lack the tags named with a protein.
T1: HA–NUAK1 (wild type), stably overexpressed in U2OS Flp/In cells (human) (UniProt O60285)
T1 sequence: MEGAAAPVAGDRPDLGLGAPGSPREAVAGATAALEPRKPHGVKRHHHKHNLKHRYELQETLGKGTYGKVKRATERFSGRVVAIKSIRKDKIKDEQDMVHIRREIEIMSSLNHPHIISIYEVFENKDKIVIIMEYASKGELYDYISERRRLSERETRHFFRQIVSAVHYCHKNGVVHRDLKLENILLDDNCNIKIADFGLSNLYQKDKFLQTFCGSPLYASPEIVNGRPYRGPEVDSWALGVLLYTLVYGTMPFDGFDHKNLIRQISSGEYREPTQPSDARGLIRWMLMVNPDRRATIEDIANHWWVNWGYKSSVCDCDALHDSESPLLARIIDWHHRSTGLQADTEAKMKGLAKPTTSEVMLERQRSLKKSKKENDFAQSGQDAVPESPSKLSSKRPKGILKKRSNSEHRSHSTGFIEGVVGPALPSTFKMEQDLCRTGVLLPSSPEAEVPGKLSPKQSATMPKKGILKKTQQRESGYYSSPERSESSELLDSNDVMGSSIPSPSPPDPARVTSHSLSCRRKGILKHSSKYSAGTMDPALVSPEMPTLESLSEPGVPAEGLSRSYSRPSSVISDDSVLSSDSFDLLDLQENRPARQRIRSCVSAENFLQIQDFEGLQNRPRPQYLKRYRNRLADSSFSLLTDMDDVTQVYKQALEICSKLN

Protein sequences, listed by entry. Tags and fused reporters are not part of them.
UniProt Q9BZL4: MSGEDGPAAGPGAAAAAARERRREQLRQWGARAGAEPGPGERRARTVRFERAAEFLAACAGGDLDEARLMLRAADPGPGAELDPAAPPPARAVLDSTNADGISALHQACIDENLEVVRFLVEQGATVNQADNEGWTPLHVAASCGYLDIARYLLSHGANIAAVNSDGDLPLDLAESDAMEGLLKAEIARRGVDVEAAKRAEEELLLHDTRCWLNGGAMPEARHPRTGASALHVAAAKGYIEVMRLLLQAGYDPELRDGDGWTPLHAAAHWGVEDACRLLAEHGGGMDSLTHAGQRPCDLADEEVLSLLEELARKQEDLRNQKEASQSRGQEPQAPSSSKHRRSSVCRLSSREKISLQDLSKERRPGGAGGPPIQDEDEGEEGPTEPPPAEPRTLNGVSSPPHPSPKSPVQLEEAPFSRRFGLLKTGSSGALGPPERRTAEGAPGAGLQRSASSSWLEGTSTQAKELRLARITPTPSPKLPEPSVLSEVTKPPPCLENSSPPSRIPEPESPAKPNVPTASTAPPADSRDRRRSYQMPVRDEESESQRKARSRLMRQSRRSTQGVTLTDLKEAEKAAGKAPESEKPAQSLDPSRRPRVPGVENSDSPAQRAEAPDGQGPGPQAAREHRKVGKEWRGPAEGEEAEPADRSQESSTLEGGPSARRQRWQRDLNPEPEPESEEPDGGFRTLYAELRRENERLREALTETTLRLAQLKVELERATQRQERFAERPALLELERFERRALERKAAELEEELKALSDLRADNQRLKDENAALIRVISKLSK
UniProt P63208: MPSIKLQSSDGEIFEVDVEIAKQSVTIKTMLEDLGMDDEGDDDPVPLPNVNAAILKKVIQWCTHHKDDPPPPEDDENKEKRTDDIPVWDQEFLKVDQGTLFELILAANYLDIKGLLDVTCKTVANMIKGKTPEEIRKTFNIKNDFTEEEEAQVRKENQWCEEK
UniProt Q93008: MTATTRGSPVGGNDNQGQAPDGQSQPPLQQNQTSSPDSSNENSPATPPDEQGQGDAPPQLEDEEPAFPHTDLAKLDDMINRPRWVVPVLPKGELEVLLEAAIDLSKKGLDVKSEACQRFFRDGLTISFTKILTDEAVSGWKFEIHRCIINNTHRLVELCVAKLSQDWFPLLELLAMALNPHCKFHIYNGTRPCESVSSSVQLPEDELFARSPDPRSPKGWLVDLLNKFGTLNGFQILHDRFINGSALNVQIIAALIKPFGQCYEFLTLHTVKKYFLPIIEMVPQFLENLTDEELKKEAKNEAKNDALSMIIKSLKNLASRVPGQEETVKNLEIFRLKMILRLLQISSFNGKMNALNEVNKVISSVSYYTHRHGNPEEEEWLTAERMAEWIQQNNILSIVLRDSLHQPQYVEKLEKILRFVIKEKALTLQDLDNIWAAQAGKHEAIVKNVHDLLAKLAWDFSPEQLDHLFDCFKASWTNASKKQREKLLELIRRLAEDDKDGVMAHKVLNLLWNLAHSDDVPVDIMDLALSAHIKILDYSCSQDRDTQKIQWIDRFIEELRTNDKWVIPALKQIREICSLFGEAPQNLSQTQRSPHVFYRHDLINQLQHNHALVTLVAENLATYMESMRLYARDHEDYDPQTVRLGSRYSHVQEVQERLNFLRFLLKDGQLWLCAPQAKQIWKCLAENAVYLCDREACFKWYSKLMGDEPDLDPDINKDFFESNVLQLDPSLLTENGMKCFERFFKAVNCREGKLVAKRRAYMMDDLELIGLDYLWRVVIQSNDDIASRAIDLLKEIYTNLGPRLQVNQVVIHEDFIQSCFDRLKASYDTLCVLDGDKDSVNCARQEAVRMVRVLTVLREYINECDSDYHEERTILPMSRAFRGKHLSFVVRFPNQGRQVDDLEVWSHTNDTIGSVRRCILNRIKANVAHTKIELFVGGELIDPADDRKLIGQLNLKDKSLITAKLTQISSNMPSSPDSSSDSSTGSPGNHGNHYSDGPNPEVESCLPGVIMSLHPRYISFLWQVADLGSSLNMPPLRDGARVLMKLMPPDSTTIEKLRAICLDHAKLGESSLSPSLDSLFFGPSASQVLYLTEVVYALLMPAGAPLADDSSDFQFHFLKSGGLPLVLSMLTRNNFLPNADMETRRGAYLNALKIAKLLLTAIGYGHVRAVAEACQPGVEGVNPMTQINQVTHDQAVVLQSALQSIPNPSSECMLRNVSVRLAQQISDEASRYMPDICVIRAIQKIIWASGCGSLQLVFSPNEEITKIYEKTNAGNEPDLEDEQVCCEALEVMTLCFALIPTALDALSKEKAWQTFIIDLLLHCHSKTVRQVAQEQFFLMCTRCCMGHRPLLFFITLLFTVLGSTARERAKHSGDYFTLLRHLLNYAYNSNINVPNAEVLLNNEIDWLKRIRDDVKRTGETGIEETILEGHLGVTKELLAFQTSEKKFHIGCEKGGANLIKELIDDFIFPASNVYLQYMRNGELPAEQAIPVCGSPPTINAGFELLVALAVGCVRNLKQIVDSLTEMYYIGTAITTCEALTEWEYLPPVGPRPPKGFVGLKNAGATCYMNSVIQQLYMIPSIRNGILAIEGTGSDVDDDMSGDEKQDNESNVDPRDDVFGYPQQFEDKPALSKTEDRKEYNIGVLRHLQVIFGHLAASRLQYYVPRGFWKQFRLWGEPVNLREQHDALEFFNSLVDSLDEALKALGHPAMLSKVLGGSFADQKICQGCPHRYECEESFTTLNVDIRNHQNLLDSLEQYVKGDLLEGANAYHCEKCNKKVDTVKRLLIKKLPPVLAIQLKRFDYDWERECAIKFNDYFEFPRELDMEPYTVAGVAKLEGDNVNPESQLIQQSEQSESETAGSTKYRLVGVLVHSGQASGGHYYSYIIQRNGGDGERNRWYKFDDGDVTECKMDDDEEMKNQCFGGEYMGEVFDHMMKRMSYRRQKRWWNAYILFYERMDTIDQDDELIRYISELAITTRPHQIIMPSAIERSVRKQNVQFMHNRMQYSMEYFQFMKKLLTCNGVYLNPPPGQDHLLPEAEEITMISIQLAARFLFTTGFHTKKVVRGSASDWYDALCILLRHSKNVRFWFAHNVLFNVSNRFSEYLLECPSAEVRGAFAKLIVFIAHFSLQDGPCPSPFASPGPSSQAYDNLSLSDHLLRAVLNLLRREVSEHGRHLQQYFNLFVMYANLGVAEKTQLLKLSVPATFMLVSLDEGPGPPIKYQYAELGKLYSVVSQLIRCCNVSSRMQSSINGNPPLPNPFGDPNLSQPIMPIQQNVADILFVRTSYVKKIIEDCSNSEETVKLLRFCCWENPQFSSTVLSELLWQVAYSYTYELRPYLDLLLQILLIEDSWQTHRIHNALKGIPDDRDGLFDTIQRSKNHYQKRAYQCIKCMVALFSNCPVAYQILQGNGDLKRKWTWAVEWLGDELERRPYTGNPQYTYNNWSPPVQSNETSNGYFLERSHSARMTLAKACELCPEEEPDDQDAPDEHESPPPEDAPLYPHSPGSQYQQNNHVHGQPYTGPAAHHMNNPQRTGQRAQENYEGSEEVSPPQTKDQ
UniProt Q9UKB1: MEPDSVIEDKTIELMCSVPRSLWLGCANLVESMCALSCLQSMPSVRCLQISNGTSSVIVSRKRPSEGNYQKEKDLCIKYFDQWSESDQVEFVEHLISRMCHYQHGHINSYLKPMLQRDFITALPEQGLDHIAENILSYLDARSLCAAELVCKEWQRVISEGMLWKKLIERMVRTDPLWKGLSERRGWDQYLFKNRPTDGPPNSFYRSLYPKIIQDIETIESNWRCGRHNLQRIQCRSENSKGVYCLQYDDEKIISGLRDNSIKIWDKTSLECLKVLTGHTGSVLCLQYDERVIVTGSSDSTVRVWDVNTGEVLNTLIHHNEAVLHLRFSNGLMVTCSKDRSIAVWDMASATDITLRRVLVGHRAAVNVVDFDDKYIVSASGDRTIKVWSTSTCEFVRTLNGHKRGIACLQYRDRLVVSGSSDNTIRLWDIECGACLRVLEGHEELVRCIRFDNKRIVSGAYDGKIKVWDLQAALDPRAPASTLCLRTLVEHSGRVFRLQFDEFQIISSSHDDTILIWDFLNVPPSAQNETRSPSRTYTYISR


Molecular target: T1, HA–NUAK1 (wild type), stably overexpressed in U2OS Flp/In cells (human)
Assay: affinity purification with mass spectrometry; HA–NUAK1 immunoprecipitated from 35 mg of U2OS Flp/In lysate; gel stained with Coomassie Blue, cut into pieces, proteins identified by mass fingerprinting; cells with empty vector as control

binding | Molecule
binds | MBS85 (from UniProt Q9BZL4 1-782)
binds | SKP1 (S-phase kinase-associated protein 1) (from UniProt P63208 1-163)
binds | USP9X (from UniProt Q93008 1-2554)
binds | ubiquitin (human (endogenous in U2OS))

The next lines start with the molecule.

Molecule | binding
βTrCP1 (human (endogenous in U2OS)) | binds
βTrCP2 (from UniProt Q9UKB1 1-542) | binds
MYPT2 (protein, UniProt O60237 1-982) MAELEHLGGKRAESARMRRAEQLRRWRGSLTEQEPAERRGAGRQPLTRRGSPRVRFEDGAVFLAACSSGDTDEVRKLLARGADINTVNVDGLTALHQACIDENLDMVKFLVENRANVNQQDNEGWTPLHAAASCGYLNIAEYFINHGASVGIVNSEGEVPSDLAEEPAMKDLLLEQVKKQGVDLEQSRKEEEQQMLQDARQWLNSGKIEDVRQARSGATALHVAAAKGYSEVLRLLIQAGYELNVQDYDGWTPLHAAAHWGVKEACSILAEALCDMDIRNKLGQTPFDVADEGLVEHLELLQKKQNVLRSEKETRNKLIESDLNSKIQSGFFKNKEKMLYEEETPKSQEMEEENKESSSSSSEEEEGEDEASESETEKEADKKPEAFVNHSNSESKSSITEQIPAPAQNTFSASSARRFSSGLFNKPEEPKDESPSSWRLGLRKTGSHNMLSEVANSREPIRDRGSSIYRSSSSPRISALLDNKDKERENKSYISSLAPRKLNSTSDIEEKENRESAVNLVRSGSYTRQLWRDEAKGNEIPQTIAPSTYVSTYLKRTPHKSQADTTAEKTADNVSSSTPLCVITNRPLPSTANGVTATPVLSITGTDSSVEAREKRRSYLTPVRDEEAESLRKARSRQARQTRRSTQGVTLTDLQEAERTFSRSRAERQAQEQPREKPTDTEGLEGSPEKHEPSAVPATEAGEGQQPWGRSLDEEPICHRLRCPAQPDKPTTPASPSTSRPSLYTSSHLLWTNRFSVPDSESSETTTNTTTAKEMDKNENEEADLDEQSSKRLSIRERRRPKERRRGTGINFWTKDEDETDGSEEVKETWHERLSRLESGGSNPTTSDSYGDRASARARREAREARLATLTSRVEEDSNRDYKKLYESALTENQKLKTKLQEAQLELADIKSKLEKVAQQKQEKTSDRSSVLEMEKRERRALERKMSEMEEEMKVLTELKSDNQRLKDENGALIRVISKLSK | binds
